Data: PubChem BioAssay AID248 (DTP/NCI, 2004)
The list shows only some results of the screen, not a fair sample: its compounds were picked by chemical class. Other doses and runs of a compound may be missing. T/C: endpoint of the treated group in % of that of the vehicle group. For survival time, this PubChem deposit counts one and a half times the control or more as active, and values a quarter to a half above the control carry no call in these data; other NCI protocols may use other cut-offs. Schedule codes are those of the source, read here as Q, the interval in days (D) or hours (H), X, the number of doses. Some entries show no survivor count and are marked so; the dose need not have been tolerated. Some doses were run more than once; the values are given in rising order.

Tested on: L1210 leukemia ip in BDF1 mice, survival T/C
Test: NCI In Vivo Anticancer Drug Screen. Data for tumor model L1210 Leukemia (intraperitoneal) in B6D2F1 (BDF1) mice
Settings: T/C endpoint: mean survival time, higher T/C = longer survival
[1] = dose: 0.05 mg/kg/injection, schedule: Q01DX009 (ip), vehicle: other
[2] = dose: 0.1 mg/kg/injection, schedule: Q01DX009 (ip), vehicle: other
[3] = dose: 0.2 mg/kg/injection, schedule: Q01DX009 (ip), vehicle: other
[4] = dose: 0.4 mg/kg/injection, schedule: Q01DX009 (ip), vehicle: other
[5] = dose: 0.8 mg/kg/injection, schedule: Q01DX009 (ip), vehicle: other
[6] = dose: 1.6 mg/kg/injection, schedule: Q01DX009 (ip), vehicle: other

SMILES | T/C [1] | T/C [2] | T/C [3] | T/C [4] | T/C [5] | T/C (dose: 1.2 mg/kg/injection, schedule: Q01DX009 (ip), vehicle: other) | T/C [6] | T/C (dose: 0.5 mg/kg/injection, schedule: Q01DX009 (ip), vehicle: saline) | T/C (dose: 1.0 mg/kg/injection, schedule: Q01DX009 (ip), vehicle: saline) | T/C (dose: 2.0 mg/kg/injection, schedule: Q01DX009 (ip), vehicle: saline) | T/C (dose: 4.0 mg/kg/injection, schedule: Q01DX009 (ip), vehicle: saline) | T/C (dose: 8.0 mg/kg/injection, schedule: Q01DX009 (ip), vehicle: saline) | T/C (dose: 0.01 mg/kg/injection, schedule: Q04DX003 (ip), vehicle: other) | T/C (dose: 0.02 mg/kg/injection, schedule: Q01DX009 (ip), vehicle: other) | T/C (dose: 0.02 mg/kg/injection, schedule: Q04DX003 (ip), vehicle: other) | T/C (dose: 0.05 mg/kg/injection, schedule: Q04DX003 (ip), vehicle: other) | T/C (dose: 0.1 mg/kg/injection, schedule: Q04DX003 (ip), vehicle: other) | T/C (dose: 0.2 mg/kg/injection, schedule: Q04DX003 (ip), vehicle: other) | T/C (dose: 0.4 mg/kg/injection, schedule: Q04DX003 (ip), vehicle: other)
CC(=O)OC[C@]12CC(=O)C(C)=C[C@H]1O[C@@H]1C(=O)[C@@H](OC(C)=O)[C@@]2(C)[C@@]12CO2 | 161 % of control [survivor count not shown] | 136 % of control [survivor count not shown] | 147 % of control [survivor count not shown] | 195 % of control [survivor count not shown] | 168 % of control [survivor count not shown] | 194 % of control [survivor count not shown] | 209 % of control [survivor count not shown] | – | – | – | – | – | – | – | – | – | – | – | –
CC1=C[C@H]2O[C@@H]3[C@H](O)[C@@H](O)[C@](C)([C@@]2(CO)CC1)[C@@]31CO1 | – | – | 113 % of control [survivor count not shown] | 131 % of control [survivor count not shown] | 151 % of control [survivor count not shown] | – | 133 % of control [survivor count not shown] | 107 % of control [survivor count not shown] | 107 % of control [survivor count not shown] | 122 % of control [survivor count not shown] | 127 % of control [survivor count not shown] | 91 % of control [survivor count not shown] | – | – | – | – | – | – | –
CC(=O)OCC12CCC(C)=CC1OC1C(O)C(O)C2(C)C12CO2 (centres undefined) | 133 [survivor count not shown] and 134 % of control [survivor count not shown] | 146 [survivor count not shown] and 148 % of control [survivor count not shown] | 131 [survivor count not shown] and 141 % of control [survivor count not shown] | 159 [survivor count not shown] and 171 % of control [survivor count not shown] | 121 [survivor count not shown] and 183 % of control [survivor count not shown] | – | 90 % of control [survivor count not shown] | – | – | – | – | – | 124 % of control [survivor count not shown] | 111 [survivor count not shown] and 118 % of control [survivor count not shown] | 136 % of control [survivor count not shown] | 140 % of control [survivor count not shown] | 139 % of control [survivor count not shown] | 139 % of control [survivor count not shown] | 113 % of control [survivor count not shown]
